# Read-outs that look alike come from different tables or passages of the source. These are yes or no findings as the source states them, for the method shown. For some assays here: In cells and extracts the contact can be indirect. Some entries that bind do so weakly or less than the wild type. Sequences can lack the tags named with a protein.
# Legend:
# [1] = molecular target: T1, drDnaA tagged with T18 or T25 through its C-terminal (Deinococcus radiodurans R1) (UniProt Q9RYE7); assay: two-hybrid
# T1 sequence: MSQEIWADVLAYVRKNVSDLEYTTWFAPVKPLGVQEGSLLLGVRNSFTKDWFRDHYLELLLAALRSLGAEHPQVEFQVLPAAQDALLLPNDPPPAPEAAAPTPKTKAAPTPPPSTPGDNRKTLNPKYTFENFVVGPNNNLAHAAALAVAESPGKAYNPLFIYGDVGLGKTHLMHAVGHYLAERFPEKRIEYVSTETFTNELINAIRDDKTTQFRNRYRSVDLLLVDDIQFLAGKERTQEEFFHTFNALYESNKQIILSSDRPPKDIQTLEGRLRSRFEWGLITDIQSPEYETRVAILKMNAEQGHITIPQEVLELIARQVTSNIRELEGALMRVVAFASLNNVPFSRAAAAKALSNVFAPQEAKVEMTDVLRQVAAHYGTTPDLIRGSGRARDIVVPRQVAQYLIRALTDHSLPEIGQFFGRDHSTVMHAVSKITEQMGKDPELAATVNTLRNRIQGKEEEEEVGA
# [2] = molecular target: T1, drDnaA tagged with T18 or T25 through its C-terminal (Deinococcus radiodurans R1); assay: two-hybrid; remark: listed apart in the source
# [3] = molecular target: T2, T18 tagged PprA (Deinococcus radiodurans) (UniProt O32504); assay: two-hybrid
# T2 sequence: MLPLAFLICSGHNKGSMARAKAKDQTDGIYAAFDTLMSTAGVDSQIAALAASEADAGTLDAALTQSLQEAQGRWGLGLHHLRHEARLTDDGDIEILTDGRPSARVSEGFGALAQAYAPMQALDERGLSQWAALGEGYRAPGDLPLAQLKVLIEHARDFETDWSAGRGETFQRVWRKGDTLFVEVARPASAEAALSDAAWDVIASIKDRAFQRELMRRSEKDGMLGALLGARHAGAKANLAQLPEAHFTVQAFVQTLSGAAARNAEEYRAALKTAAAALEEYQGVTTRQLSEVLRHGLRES
# [4] = molecular target: T3, native PprA expressing on chromosome (Deinococcus radiodurans R1 (endogenous)) (UniProt O32504); assay: co-IP
# T3 sequence: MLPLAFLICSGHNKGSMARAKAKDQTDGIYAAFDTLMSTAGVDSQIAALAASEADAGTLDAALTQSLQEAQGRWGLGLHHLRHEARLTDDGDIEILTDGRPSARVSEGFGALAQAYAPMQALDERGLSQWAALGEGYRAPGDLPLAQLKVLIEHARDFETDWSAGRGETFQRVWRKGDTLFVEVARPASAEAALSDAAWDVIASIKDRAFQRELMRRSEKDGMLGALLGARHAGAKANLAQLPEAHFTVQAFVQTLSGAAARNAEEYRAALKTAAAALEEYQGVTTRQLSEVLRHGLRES
binder,measurement,setting,value
"drDnaA tagged with T18 or T25 through its C-terminal (protein, UniProt Q9RYE7 1-466) MSQEIWADVLAYVRKNVSDLEYTTWFAPVKPLGVQEGSLLLGVRNSFTKDWFRDHYLELLLAALRSLGAEHPQVEFQVLPAAQDALLLPNDPPPAPEAAAPTPKTKAAPTPPPSTPGDNRKTLNPKYTFENFVVGPNNNLAHAAALAVAESPGKAYNPLFIYGDVGLGKTHLMHAVGHYLAERFPEKRIEYVSTETFTNELINAIRDDKTTQFRNRYRSVDLLLVDDIQFLAGKERTQEEFFHTFNALYESNKQIILSSDRPPKDIQTLEGRLRSRFEWGLITDIQSPEYETRVAILKMNAEQGHITIPQEVLELIARQVTSNIRELEGALMRVVAFASLNNVPFSRAAAAKALSNVFAPQEAKVEMTDVLRQVAAHYGTTPDLIRGSGRARDIVVPRQVAQYLIRALTDHSLPEIGQFFGRDHSTVMHAVSKITEQMGKDPELAATVNTLRNRIQGKEEEEEVGA",binding,[1],binds
same,binding,[2],binds
same,binding,[3],binds
"drDnaA with T18 tag or polyhistidine tag expressed on plasmids in D. radiodurans (protein, UniProt Q9RYE7 1-466) MSQEIWADVLAYVRKNVSDLEYTTWFAPVKPLGVQEGSLLLGVRNSFTKDWFRDHYLELLLAALRSLGAEHPQVEFQVLPAAQDALLLPNDPPPAPEAAAPTPKTKAAPTPPPSTPGDNRKTLNPKYTFENFVVGPNNNLAHAAALAVAESPGKAYNPLFIYGDVGLGKTHLMHAVGHYLAERFPEKRIEYVSTETFTNELINAIRDDKTTQFRNRYRSVDLLLVDDIQFLAGKERTQEEFFHTFNALYESNKQIILSSDRPPKDIQTLEGRLRSRFEWGLITDIQSPEYETRVAILKMNAEQGHITIPQEVLELIARQVTSNIRELEGALMRVVAFASLNNVPFSRAAAAKALSNVFAPQEAKVEMTDVLRQVAAHYGTTPDLIRGSGRARDIVVPRQVAQYLIRALTDHSLPEIGQFFGRDHSTVMHAVSKITEQMGKDPELAATVNTLRNRIQGKEEEEEVGA",binding,[4],binds
"recombinant PprA (natural protein, Deinococcus radiodurans, UniProt O32504 1-300, looked up) MLPLAFLICSGHNKGSMARAKAKDQTDGIYAAFDTLMSTAGVDSQIAALAASEADAGTLDAALTQSLQEAQGRWGLGLHHLRHEARLTDDGDIEILTDGRPSARVSEGFGALAQAYAPMQALDERGLSQWAALGEGYRAPGDLPLAQLKVLIEHARDFETDWSAGRGETFQRVWRKGDTLFVEVARPASAEAALSDAAWDVIASIKDRAFQRELMRRSEKDGMLGALLGARHAGAKANLAQLPEAHFTVQAFVQTLSGAAARNAEEYRAALKTAAAALEEYQGVTTRQLSEVLRHGLRES",binding,[2],binds
